From the supplement of paper PMC7411640
Where a name gives a salt, the structure may show the parent alone. Some of the results follow. Repeats in this data set agree poorly, so a single value says little.

System: MDA-MB-468
Assay: phospho-S6 immunofluorescence (DAPI-normalised), per-plate z-score; higher = higher phospho-S6 signal (less pathway suppression)
Details: 24 h
Procedure: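 GPCR-targeted compound library (MedChemExpress HY-L006) tested on MDA-MB-468 PTEN-null TNBC cells in 384-well plates at 0.1, 1 or 10 uM, combined with vehicle, GDC0941 450 nM or lapatinib 1 uM, for 24 h. Phospho-S6 (S240/244) immunofluorescence normalised to DAPI and expressed as a per-plate z-score; values are the mean of biological triplicates.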

[1] = compound 0.1 µM, co-treatment: GDC0941 450 nM
[2] = compound 0.1 µM, co-treatment: lapatinib 1 uM
[3] = compound 0.1 µM, co-treatment: vehicle
[4] = compound 1 µM, co-treatment: GDC0941 450 nM
[5] = compound 1 µM, co-treatment: lapatinib 1 uM
[6] = compound 1 µM, co-treatment: vehicle
[7] = compound 10 µM, co-treatment: GDC0941 450 nM
[8] = compound 10 µM, co-treatment: lapatinib 1 uM
[9] = compound 10 µM, co-treatment: vehicle

| Compound | phospho-S6 immunofluorescence (z-score) [1] | phospho-S6 immunofluorescence (z-score) [2] | phospho-S6 immunofluorescence (z-score) [3] | phospho-S6 immunofluorescence (z-score) [4] | phospho-S6 immunofluorescence (z-score) [5] | phospho-S6 immunofluorescence (z-score) [6] | phospho-S6 immunofluorescence (z-score) [7] | phospho-S6 immunofluorescence (z-score) [8] | phospho-S6 immunofluorescence (z-score) [9] |
| --- | --- | --- | --- | --- | --- | --- | --- | --- | --- |
| Cc1cc(OCCCS(C)(=O)=O)cc(C)c1-c1cccc(COc2ccc3c(c2)OC[C@H]3CC(=O)O)c1 | -0.16 | -0.5 | 0 | 0.08 | -0.03 | -0.36 | -1.06 | 0.1 | -0.32 |
| CC(C)NCC(O)COc1ccc(CCOCC2CC2)cc1 (centres undefined) [Betaxolol] | -0.77 | 0.92 | -1.33 | -0.71 | 0.76 | -0.1 | 0.15 | 0.69 | -0.54 |
| Cc1nccn1CC1CCc2c(c3ccccc3n2C)C1=O (centres undefined) [Ondansetron (hydrochloride dihydrate)] | 0.9 | -1.09 | -0.06 | 0.16 | 0.19 | -0.36 | 0.11 | -0.58 | 0.16 |
| NC(N)=Nc1nc(CSCC/C(N)=N/S(N)(=O)=O)cs1 [Famotidine] | -0.9 | -0.36 | -1.3 | -1.48 | 0.38 | -0.14 | -1.24 | -0.34 | -0.29 |
| CN(C)CCCN1c2ccccc2CCc2ccc(Cl)cc21 [Clomipramine (hydrochloride)] | -0.29 | -0.7 | -1.47 | -0.08 | -1.69 | -2.24 | -1.98 | -3.26 | -1.14 |
| OC[C@H]1O[C@@H](n2cnc3c(N[C@@H]4CCc5ccccc54)ncnc32)[C@H](O)[C@@H]1O | 2.35 | 1.32 | 0.66 | 0.79 | 2.14 | 0.51 | 1.19 | 0.89 | 1.18 |
| CC1OC2(CS1)CN1CCC2CC1 (centres undefined) [Cevimeline (hydrochloride hemihydrate)] | 1.34 | 0.13 | 0.98 | 1.21 | 0.77 | 0.79 | 0.65 | -0.04 | 0.89 |
| CCc1cc(-c2noc(-c3cc(OC)nc(C4CCCC4)c3)n2)cc(C)c1OC[C@@H](O)CO [Cenerimod] | -1.2 | -1.68 | -1.01 | -1.8 | 0.7 | -1.47 | -3.08 | -4.72 | -4.14 |
| C[N+]1(C)[C@@H]2C[C@@H](OC(=O)C(O)(c3cccs3)c3cccs3)C[C@H]1[C@@H]1O[C@@H]12 [Tiotropium (Bromide)] | -0.5 | -0.48 | -0.23 | -0.28 | -0.19 | -0.32 | -0.58 | 0.42 | -0.69 |
| COC1CCC(C(=O)c2ccc3nc4c(cc3c2)CCCO4)CC1 (centres undefined) | 0.37 | 0.26 | 0.38 | 0.06 | -0.2 | 0.27 | -0.83 | 0.85 | 0.02 |
| CCCCC(C)(O)C/C=C/[C@H]1[C@H](O)CC(=O)[C@@H]1CCCCCCC(=O)OC (mixture of isomers) [Misoprostol] | 1.58 | 0.81 | 0.75 | 1.29 | 0.74 | 0.85 | 0.36 | 0.67 | 1.59 |
| Cc1ccccc1C(=O)Nc1ccc(C(=O)N2CCCC(O)c3cc(Cl)ccc32)c(C)c1 (centres undefined) [Tolvaptan] | -1.73 | -0.73 | -0.31 | 0.22 | -1.57 | 0.34 | 0.01 | -1.6 | -0.25 |
| CCN(CC)CCCC(C)Nc1nc(C)cc(Nc2ccc3nc(C)cc(N)c3c2)n1 (centres undefined) | 0.33 | 0.5 | 0.66 | 1.24 | 0.33 | 0.38 | 0.95 | 1.82 | 0.49 |
| O=C(Nc1cccc(Cl)c1)c1ccccn1 | 0.27 | 0.55 | -0.18 | -0.06 | 1.51 | -0.12 | -1.46 | 0.72 | -0.86 |
| C[C@@H]1CCCN1CCc1cc2cc(-c3ccc(C#N)cc3)ccc2o1 | -0.25 | -0.39 | -0.36 | 0.79 | -0.78 | 0.56 | -3.3 | -4.56 | -0.97 |
| C[N+]1(C)[C@@H]2CC[C@H]1C[C@@H](OC(=O)C(O)c1ccccc1)C2 (some centres undefined) [Homatropine (methylbromide)] | 1.41 | 0.56 | 0.95 | 1.34 | 0.59 | 0.35 | 0.87 | 1.2 | 1.2 |
| CCN(CCCCOC(=O)c1ccc(OC)c(OC)c1)C(C)Cc1ccc(OC)cc1 (centres undefined) [Mebeverine (hydrochloride)] | -1.33 | -1.34 | -1.02 | -1.18 | 0.23 | -1.74 | 0.43 | 0.05 | -0.85 |
| N#Cc1ccc2[nH]cc(CCCCN3CCN(c4ccc5oc(C(N)=O)cc5c4)CC3)c2c1 [Vilazodone (Hydrochloride)] | -0.94 | 0.69 | -0.15 | 0.14 | -0.82 | -0.09 | -0.01 | -0.76 | 0.65 |
| OCCN1CCN(CCCN2c3ccccc3Sc3ccc(Cl)cc32)CC1 [Perphenazine] | 0.22 | 0.68 | 0.94 | 1.29 | -0.67 | 0.65 | -1.28 | -5.07 | 0.82 |
| Cn1c(SCC(=O)N2CCC[C@H]2C(=O)Nc2ccccc2-c2ccccc2)nc2ccccc21 | -1.37 | 0.56 | -0.58 | 0.28 | 0.62 | 0.33 | 0.08 | 1.59 | 0.81 |
| C(=C\c1ccccc1)/CN1CCN(C(c2ccccc2)c2ccccc2)CC1 [Cinnarizine] | 0.62 | 0.52 | 0.93 | 0.56 | -0.82 | 1.77 | 0.86 | 0.22 | 1.3 |

3 entries from above, ordered by length of the SMILES, high to low.

| Compound | phospho-S6 immunofluorescence (z-score) [1] | phospho-S6 immunofluorescence (z-score) [2] | phospho-S6 immunofluorescence (z-score) [3] | phospho-S6 immunofluorescence (z-score) [4] | phospho-S6 immunofluorescence (z-score) [5] | phospho-S6 immunofluorescence (z-score) [6] | phospho-S6 immunofluorescence (z-score) [7] | phospho-S6 immunofluorescence (z-score) [8] | phospho-S6 immunofluorescence (z-score) [9] |
| --- | --- | --- | --- | --- | --- | --- | --- | --- | --- |
| CCN(CC)CCCC(C)Nc1nc(C)cc(Nc2ccc3nc(C)cc(N)c3c2)n1 (centres undefined) | 0.33 | 0.5 | 0.66 | 1.24 | 0.33 | 0.38 | 0.95 | 1.82 | 0.49 |
| NC(N)=Nc1nc(CSCC/C(N)=N/S(N)(=O)=O)cs1 [Famotidine] | -0.9 | -0.36 | -1.3 | -1.48 | 0.38 | -0.14 | -1.24 | -0.34 | -0.29 |
| CC(C)NCC(O)COc1ccc(CCOCC2CC2)cc1 (centres undefined) [Betaxolol] | -0.77 | 0.92 | -1.33 | -0.71 | 0.76 | -0.1 | 0.15 | 0.69 | -0.54 |
